The labels stand for the following.
B1: tRNA (parent)
chain: GUUCCGUUGGCGUAAUGGUAACGCGUCUCCCUCCUAAGGAGAAGACUGCGGGUUCGAGUCCCGUACGGAACG

These results are taken from the RNAGym collection of RNA variant scans (doi:10.1126/science.aae0568).

Variants at the background level are over-represented here.

In the data set the parent is B1. Put plainly: yeast fitness relative to wild type (ratio to wild type); higher = fitter; tRNA-Arg(CCU), competitive growth, 37 C, YPD. In a few lines: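 A pool of Saccharomyces cerevisiae strains, each with a tRNA-Arg(CCU) gene variant at the native genomic locus, was competed in YPD at 37°C for 24 hours across six parallel replicates. The variants had been chemically synthesised at a 3% per-site mutation rate over 69 sites, and gene amplicons before and after competition were read by 100-nucleotide paired-end sequencing. Darwinian fitness relative to wild type rested on changes in genotype frequencies. Genotypes required ≥ 100 starting reads, and estimates < 0.5 were set to 0.5.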
C11G A20G A37C A42U: the yeast fitness was no more than 0.5. As to A14G G18A A20C A40C A45G G52A, the yeast fitness is no more than 0.5. To C5U U16G A43U G58A belongs no more than 0.5. As for U3A C49U C55A C66U, the yeast fitness was no more than 0.5. For C11U U35A C55U G68C, the yeast fitness was no more than 0.5. In the case of U16A A21G C34U, the yeast fitness is no more than 0.5.

With C22G G25C A36C A42G G52A, the yeast fitness is no more than 0.5. Take A14C A69C: the yeast fitness came to 0.654. As for U16A G41C C62G, the yeast fitness is no more than 0.5. Then G17C G39C G63A, with no more than 0.5.

Turning to A14G A15U A37C A43U, the yeast fitness was no more than 0.5. Take G12A C49U C61G: the yeast fitness was no more than 0.5. For the variant C11U U16C U19C, the yeast fitness was 0.929. G10A C33U C49U: the yeast fitness came out at 0.663.

For C5G C55G G58A C61U, the yeast fitness is no more than 0.5. As for A21U A42C U47G G63A A69U, the yeast fitness is no more than 0.5. Consider A15U A20C C46G G50C C61G, for which the yeast fitness amounted to 0.604. For A45U G48C, the yeast fitness worked out at 0.857. Turning to G6A G23A C27U A45C C60A, the yeast fitness is no more than 0.5. C4G A15G G17C C34A G50A: the yeast fitness was no more than 0.5. Take U8C U19A A40G C55G A65C: the yeast fitness was no more than 0.5. To G6C C34U belongs 0.648; to C4G U26A A37U, no more than 0.5; to G12A U28A A37G C46U, no more than 0.5. Then C5U U19C C24G, with no more than 0.5. Regarding C4U C30A C66U, the yeast fitness was 0.82. With A15C G58A G67A, the yeast fitness is no more than 0.5. As to C24U C34A G39A U54A, the yeast fitness is no more than 0.5. G6C U19A C55U G56C: the yeast fitness is no more than 0.5. Take U7C A37U A70C: the yeast fitness is no more than 0.5. With U28C C49U C55G, the yeast fitness was no more than 0.5. Take C4G G18C A37C A57C: the yeast fitness is no more than 0.5. C22U C24A G56C U59G: the yeast fitness is no more than 0.5. Turning to C22G C55A A65U, the yeast fitness is no more than 0.5. As to C11U G44C C49G A57C, the yeast fitness is no more than 0.5.

In the case of G12A A15G A36C, the yeast fitness is no more than 0.5. In the case of C11G A15C C34U A65C, the yeast fitness was no more than 0.5. On to U26C C34U, for which the yeast fitness worked out at 0.716.

Regarding G12A G67C, the yeast fitness came out at 0.848.

Turning to C24G C29U U35C, the yeast fitness is no more than 0.5. For C5U C66A, the yeast fitness turned out to be 0.729. For C22G C29A A42C C66U, the yeast fitness is no more than 0.5. Turning to A20C U32G U53A A57C C62U, the yeast fitness is no more than 0.5.

On to A20U C29G A42G A45G A69U, for which the yeast fitness is no more than 0.5. As to C4G U8C G48C, the yeast fitness is 0.568.

Take G10C C22A A65C: the yeast fitness is no more than 0.5.

As to G9A A20U C34G A42U G68C, the yeast fitness is no more than 0.5.

For G9C C34A C46A G56A, the yeast fitness was no more than 0.5.

With G18A A21U A37U A42U C46A G58C U64A, the yeast fitness was no more than 0.5.

With G10A C29U C62U A70U, the yeast fitness was no more than 0.5. Turning to C5A U16C C22U A57U, the yeast fitness was no more than 0.5. G51C C55A C60A: the yeast fitness was no more than 0.5. With U2G G9C G12A A42C C46A A65C, the yeast fitness was no more than 0.5. With G25U A36U G56C C62U G63A C66G, the yeast fitness was no more than 0.5.

Turning to G10A C11G A20G, the yeast fitness is no more than 0.5. Then C27U A40U U54C C55A, with no more than 0.5; and U8A C29U C33U A69G, with no more than 0.5. On to C27A C61A, for which the yeast fitness worked out at 0.67. As to A21G C49U U53C C61G, the yeast fitness is no more than 0.5. In the case of G6A A20C A45G G50C C60A A69C, the yeast fitness was no more than 0.5.

Take A15U A57C A65U: the yeast fitness stood at 0.794. To A14G G18A G44A C62U belongs no more than 0.5; to U3C A21U G38C G67A, no more than 0.5. To A37G C49A G63C belongs no more than 0.5; to C4A G17A G41A U47C G50C, no more than 0.5; to G10C A21U C31G C34G, no more than 0.5. For the variant G12A G48C U59A, the yeast fitness was no more than 0.5.

Take A36U A42C A43G U64C A70C: the yeast fitness was 0.559. Turning to C34G U54A A65G, the yeast fitness was no more than 0.5. Take U3C G10A U13C C46U U47A U54C: the yeast fitness was no more than 0.5. Consider A36C A40U A57G, for which the yeast fitness was no more than 0.5.

As for A14U C55A A69C, the yeast fitness was no more than 0.5. Take C27A A45G G48C: the yeast fitness is no more than 0.5. On to A36U G39C A69C, for which the yeast fitness is no more than 0.5. As to U8G C22G G48A C60A U64C A69C, the yeast fitness was found to be 0.561. With U3A C27A C30U G41C A43U C49A, the yeast fitness was no more than 0.5. As for U26A A65C, the yeast fitness was 0.946. With G6A C11U C33U C66U, the yeast fitness is no more than 0.5. Consider A21U U32C A43U U59A, for which the yeast fitness is no more than 0.5. To C11U C27U C31A A42G C49G G51A G68C belongs no more than 0.5; to A15U G39C U47C, no more than 0.5. Take G23A A42G: the yeast fitness was found to be 0.747. Consider U7A A15C C24G C31A G38C G51C C61G, for which the yeast fitness is no more than 0.5. Regarding A14U U19G C30G, the yeast fitness was no more than 0.5.
